Source: the supplement of paper PMC12764529
± gives the half width of the 95% confidence interval. For many entries, trypsin and chymotrypsin gave values far apart.

Tests used:
[1] = folding stability dG unfold from trypsin proteolysis; higher = more stable
Summary of the method: (§1)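 Designed mini-proteins (under 80 residues, no cysteine) in a PA-tagged cDNA display construct were digested with trypsin and chymotrypsin. Each protease was used at 11 concentrations (threefold dilutions) plus a no-protease condition, followed by sequencing. K50 was inferred by Bayesian fitting of sequencing counts, and unfolding free energy was derived against a sequence-predicted unfolded-state K50 and a shared folded-state K50, per protease or combined. Only designs with AlphaFold2 dimer inter-PAE above 15 were kept.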

[2] = folding stability dG unfold from chymotrypsin proteolysis; higher = more stable
Summary of the method: as §1

[3] = folding stability dG unfold (combined trypsin and chymotrypsin); higher = more stable
Summary of the method: as §1

| Sequence | folding stability dG unfold [1] [kcal/mol] | folding stability dG unfold [2] [kcal/mol] | folding stability dG unfold [3] [kcal/mol] |
| --- | --- | --- | --- |
| SAGKPIKIEVEEVDPNGKVKIKVTYGNSKLEIELPAKKGGPVEFDIAVKDSDGNVYKAKATVYLPNAKKSAG [r5_296_TrMRF] | 0.27 ± 0.21 | 3.21 ± 0.44 | 2.85 ± 0.6 |
| SAGGSAGGSAGGAPKGAPVFFHVIRKEKKVTLEKTPDGELKETIEEKITVELFTLLAPESAGGSAGGSAGGS [r10_297_TrMRF] | 1.86 ± 0.083 | 4.23 ± 0.13 | 3.46 ± 0.19 |
| SPFIMIRIDIERKNGKEVEMMFPVPANNIKNNLRDHLGPGYKVKITDIEPIDPEQFPPGQMIKIRYRVKPSA [r9_803_TrROS] | 1.73 ± 0.048 | 1.71 ± 0.13 | 1.79 ± 0.18 |
| SAGGSAGGSAPELTLTLTLTLTVTVTPTTRPAPAAKPKTTRTLTLTVTLTLNPDGELTATVTLSAGGSAGGS [r12_438_TrROS_Hall] | 3.48 ± 0.16 | 5.76 ± 0.13 | 5.57 ± 0.15 |
| SGPKPVPITVTRHKDHSFTITLPNGLTFTIPAPPNSWATATVDPEKGVVTVFVYNGDKTETFEIPLPPNLSA [r9_226_TrMRF] | 3.05 ± 0.08 | 5.26 ± 0.04 | 5.09 ± 0.066 |
| SAGGSAKTITIELEIKNPETNETYRIKAEIVSVDKEKNVIVVKIEIENKNGEKYEFTFVIKDIEELSAGGSA [r15_828_TrROS_Hall] | 2.35 ± 0.14 | 4.46 ± 0.12 | 4.27 ± 0.2 |
| SAGGMVRITRDEDGILRVELFVEGTPEEAEEEAARLVRLLEELGFEEVRVEREPFGDGVVVTIEAKASAGGS [r8_113_TrMRF] | 2.55 ± 0.11 | 2.86 ± 0.083 | 2.74 ± 0.076 |
| SAGGSAGGSADWWIIQITLQPPDGQEFHIMIPYPVDQIKDQVKNKFGFKIKDVTIFPADDLKSAGGSAGGSA [r18_107_TrROS] | 1.52 ± 0.35 | 3.69 ± 0.32 | 3.05 ± 0.59 |
| SAGGSAGGSAGEVTLTEETRPLPDGTPVRVTTTEVIPEVGTTVTTVTYPGDETRTETIALSAGGSAGGSAGG [r11_742_JUSTAS] | 1.39 ± 0.043 | -1.29 ± 0.11 | 0.685 ± 0.029 |
| SAGGSAGGSAKYIKFYVPADKMTVEEFAEFIRDELGIPGENIKIDEVEPSPNGWYRVTIKIPSAGGSAGGSA [r18_118_TrROS] | 1.82 ± 0.036 | 3.886 ± 0.031 | 3.47 ± 0.07 |
| SAGGEIKITSVKVLPDGTLVVEAEITLPNGYKVEIRVYADGTVEIRVYKKGEPPEPVTKTITLVVEPSAGGS [r16_787_TrROS_Hall] | 1.95 ± 0.085 | 4.45 ± 0.14 | 4.06 ± 0.2 |
| SAGGSAGGMIKITITVPPGVSPEFVREKIAPLGVEVLSVEPLPDGTHRVTIEIPPEITKNPELLSAGGSAGG [r6_470_JUSTAS] | 1.68 ± 0.051 | 1.18 ± 0.023 | 1.42 ± 0.044 |
| SAGGMLVYKIKITTEDGEEIEITIEAESEEEAKAAAEELAKKLGLEIKKIEIEKIELPEEVSEEELKSAGGS [r8_364_TrROS_Hall] | 1.8 ± 0.074 | 4.41 ± 0.082 | 4.08 ± 0.12 |
| KKIKEITIEINGLKVKITKTDDTLTIEIEIYNKKTGKKVTITAKVKKIDKKTGKIVIEAKITLPPGAKLLPS [r1_234_TrROS_Hall] | 1.67 ± 0.089 | 3.88 ± 0.18 | 3.33 ± 0.29 |
| SAGIFRFPDGQEITIPYYARTPNGKITPSEIKEQIKEFLAEQPGVKITEIEVEHEDNYVRVTITVRLPKSAG [r5_688_TrROS] | 1.46 ± 0.14 | 0.316 ± 0.42 | 1.01 ± 0.21 |
| SAGGFWLKNPNGHYIQVNVEVEWEPRRDPDNGKPTWEPKIEINVEVYDPNGEKRPIPEDQAKDLLKKLSAGG [r13_809_TrROS] | 0.604 ± 0.073 | 1.64 ± 0.082 | 1.31 ± 0.11 |
| SAGGKKPPKVEEIEIEIPGLKIKFVRLENGIIRAEIFNKDGKLVAEFEFTLKDGRKLTLTLELKKKKKSAGG [r13_584_TrROS_Hall] | 1.45 ± 0.07 | 3.88 ± 0.36 | 2.86 ± 0.53 |
| SAGGATVKAPPPEVTLRLTVVTRTTTRNEATGETTERTEVRTLTLTFKPGETIDLAALLPPGATVVLESAGG [r13_753_TrROS_Hall] | 1.72 ± 0.074 | 3.83 ± 0.19 | 3.31 ± 0.31 |
| SAGGSAMVTVEIKFPDGSTKTITYPVPSSLSPEEVRAVAEEIAKELAEKEGKPGLPVEVVKITFEPSAGGSA [r15_463_JUSTAS] | 4.02 ± 0.14 | 1.38 ± 0.02 | 3.13 ± 0.11 |
| SAGGSAGGSAGGAAKPGQPVTIQIKWEFLKMRHERTPDGGRKMEMRYKIEIEILPGMPIKSAGGSAGGSAGG [r7_919_TrROS] | 2.31 ± 0.1 | 5.03 ± 0.26 | 4.67 ± 0.3 |

Only folding stability dG unfold [3] [kcal/mol] and folding stability dG unfold [1] [kcal/mol] (two entries from above):
Sequence	folding stability dG unfold [3] [kcal/mol]	folding stability dG unfold [1] [kcal/mol]
SAGGSAMVTVEIKFPDGSTKTITYPVPSSLSPEEVRAVAEEIAKELAEKEGKPGLPVEVVKITFEPSAGGSA [r15_463_JUSTAS]	3.13 ± 0.11	4.02 ± 0.14
SAGGSAGGSAGGAAKPGQPVTIQIKWEFLKMRHERTPDGGRKMEMRYKIEIEILPGMPIKSAGGSAGGSAGG [r7_919_TrROS]	4.67 ± 0.3	2.31 ± 0.1
